The source of these data is PubChem BioAssay AID1347423 (Functional Genomics Laboratory (NCATS/FGL), 2020).

About 210 (0.4%) of roughly 52,000 sequences were called active.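 How the source made its calls: active means gene whose silencing raises cell survival under the drug, median off-target-corrected z-score across its silencing RNAs 2 or more; inactive means the rest.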 The list shows a part of the results.

This assay can be described thus: Resistance to Poly (ADP-Ribose) Polymerase inhibitor: Gene Identification via Genome-wide siRNA Screen. The conditions noted are these: mouse BRCA2 R2336H ES cells, olaparib, CellTiter-Glo viability; stronger effect = higher value. From the text:
The role of Poly (ADP-Ribose) Polymerase (PARP) proteins in DNA repair has been elegantly utilized for the synthetic lethality-based treatment of BRCA-deficient tumors by PARP inhibitors. PARP inhibitors are now being used for treatment of BRCA-deficient breast and ovarian cancers. […] While several mechanisms of drug resistance have been identified, majority of these tumors develop drug resistance due to unknown causes. To identified novel regulators of chemo-resistance in BRCA2-mutated cells, we performed a genome wide siRNA library screen. We have found ES cells expressing a hypomorphic allele of BRCA2 to be hypersensitive to PAPP inhibitors (such as olaparib). We used ES cells expressing a mutant allele of BRCA2 that has a single amino acid substitution at position 2336 (arginine to histidine, R2336H). The screen was conducted using an Ambion (Thermo) Silencer Mouse Genome siRNA collection. The library targets 17,575 mouse genes with 3 siRNAs per gene. TET2 (E130014J05Rik) was identified as a top candidate.
Transfections were performed in 384 well plates (Corning 3707). Plates were coated with 0.1% gelatin in H2O overnight at ambient temperature. Gelatin solution was aspirated (BioTek EL406) and siRNAs were printed using a Bravo VPrep liquid handler integrated within a BioCel automation platform (Agilent). Cell viability was measured using CellTiter Glo (Promega). For transfections, […] of serum free media containing Lipofectamine RNAiMax […] was added to wells containing siRNA (0.8pmol). Lipid and siRNA were allowed to complex for 45 min at ambient temperature before addition of 1000 cells in DMEM, 30% FBS to yield final transfection mixtures containing 20 nM siRNA in DMEM, 15% FBS. PARPi (olaparib, AZD2281) was added 48 h post-transfection (500 nM) and viability (CellTiter Glo, Promega) was assayed 72 h later on a PerkinElmer Envision 2104 Multilabel plate reader. Ambion Silencer Select Negative Control #2 was incorporated on all screening plates (16 wells) and the median negative control value on each plate was used for normalization. An siRNA targeting Trp53 was used as a positive control. This control yielded a median protective effect of ~1.9 fold versus negative control throughout the screen. The median absolute deviation (MAD) based z-score was calculated for each siRNA. Genes were then ranked by taking the median value for all siRNAs tested against a given gene. Scores were also adjusted for seed-based off-target effects to help deprioritize likely false positives.
For orientation: Cellular ATP, detected with luciferase, serves as a proxy for viable cell number.
With GGAAAAGUUGCAUUUGGUCTT against Wdr17, the z-score was inactive: -0.539. To CCAGAAGCCAACUAUCUUUTT against Ppp1cb belongs inactive: 1.93.

GGAUGCUCUCUUAAAUGGATT against AI595338: the z-score was inactive: -0.0806. For GAUCUUAUAUGUUGGUGGUTT against V1rc2, the z-score was inactive: -0.413. The result for GGCUUGUGGCCUUAUCUGATT against Comtd1 reads inactive: 0.643; that for CGGUCUUCAAGCUCCCUCATT against Olfr627, inactive: -0.737. Regarding GCUUGACCCUACACUACAGTT against Olfr1121, the z-score was inactive: 1.25.

On to GAACAGUCCUUUUAUGGAUTT against V1rc14, for which the z-score is inactive: 0.108. To CGAACUCAAGAGUGUGGAGTT against Becn1 belongs inactive: -0.83. To GGAAAGAGCACCAAUUUUUTT against Ccr5 belongs inactive: 0.926; to GGAAGGUGGUGUCAAAAUGTT against 3-Sep, inactive: -0.692. The result for GGAUAAUAGCAGCUUAUACTT against Ccl11 reads inactive: 0.759; that for GGGCCAUCACACACCCUAATT against Ctrl, inactive: -1.43; that for GGUGGAGAAGCUCAUUGCUTT against Zap70, inactive: -0.0251. Take GGAUUUGAGUUGAAGCGUGTT against Zfp31: the z-score is inactive: -0.623. To “GGGUCAGAUGCAGACUGUUTT against 9030611O19Rik” belongs inactive: 0.403. Turning to GCAGAUUGAAUCAUCCAUGTT against Nipa, the z-score was inactive: -0.415. Turning to GGCAACAGGACUGCCAAAUTT against Arhgap12, the z-score was inactive: -2.12. In the case of “GGAGCAUUGCUUCUCUGACTT against 6030445D17Rik”, the z-score is inactive: -1.34. The result for “GGAGUUAAUCAGUCAAAUGTT against 6330415M09Rik” reads inactive: 1.86; that for GCAUUACCAAGGCGAUUUUTT against Ren2, inactive: 0.285; that for GGUCCUGUGGAUAACAAUATT against Inha, inactive: -1.15. The result for “GCGAUUAACGGAUCGUACCTT against 1110019O13Rik” reads inactive: -0.0989; that for “GGACAGCGAUAUCUCAAUATT against 1700001P01Rik”, inactive: 0.463; that for “GCAUCUCUCUACCAUUGACTT against 1200004M23Rik”, inactive: -1.98. To CGUACUAUGGUGCUUUCAUTT against Map4k4 belongs inactive: -0.787; to GCAACAGUUAACCAUUAGCTT against Ms4a6b, inactive: -0.445; to CCAGAAUGUAAAACAACCGTT against Zfp365, inactive: 1.5. As for GGCCUACUCAAUCAAAGACTT against Tigd5, the z-score is inactive: -0.465.

Take CUGAUUCUGGGAAACAGUATT against Tas2r123: the z-score was inactive: 0.0544. Turning to GGUCUUCAGCCCAAGAAAUTT against Dsg2, the z-score is inactive: 1.21. The result for “CCUAGGAUAGAGAUUGUUGTT against 4733401H18Rik” reads inactive: -0.815; that for GGGUAAGACAUACAACAUATT against Attp, inactive: -0.772. Consider GGUUUUUACAGAAGUACAUTT against Atm, for which the z-score was inactive: -2.49. As to “GGAUCCUAAAAUGAAAAAGTT against 1700006C19Rik”, the z-score was inactive: -0.482.

“GGACAGACUGAUUAAGAAATT against 1700019B16Rik”: the z-score is inactive: 2.44. Turning to GGUUAUAUCCAUGUGACACTT against Nkg7, the z-score is inactive: 0.359. The result for CCCAUUCUCAGGGUACUAATT against Apba2bp reads inactive: 0.0437.

CGAAAACAUUAACCUUGGUTT against Mylip: the z-score is inactive: 0.0259. In the case of GUCUUUACCGACUGGUUAGTT against Ldoc1, the z-score was inactive: 0.0531.

Turning to “CCCUUAGGAAUUGAAUAUGTT against 4930413O22Rik”, the z-score is inactive: 0.386. The result for GGUUUCAUGUGACUUUUAUTT against Tgn reads inactive: 1.51; that for GGCCAUAAAGGAAAGAGCUTT against Actr1a, inactive: -0.529. The result for CCCUUCUUCGGGUUUUAACTT against Kcna3 reads inactive: -0.000841; that for GGAAAAACUUCACCUUUGGTT against B3galt1, inactive: -1.12.

On to GGAUUGAGACCUCACAGUGTT against Gorasp2, for which the z-score is inactive: -0.297. The result for CCUAGAGGAAGAUUUCGAUTT against Cacna1h reads inactive: -0.0502; that for “GCUGUCAGCAAAUAAAUGCTT against 1110020P15Rik”, inactive: -0.461; that for “CCUAGAAGUCAUUAAGACGTT against 5730438N18Rik”, inactive: 0.575. The result for CCUCUGGUUGUAAAAACAUTT against Rpp38 reads inactive: 1.15; that for “GCUGUAGUUCCCUGGCCUATT against 2310057N15Rik”, inactive: -1.05.

Regarding GGAUUUUUGCACUCAGUAATT against Olfr1256, the z-score is inactive: 0.617. The result for CCUGAAUUGGUACCUCACATT against AI746432 reads inactive: -3.34. To CCUUACCAUCGUCUUCAAGTT against Cmklr1 belongs inactive: 0.503; to CGAUGACAUCAGGAUUGUUTT against Gpr128, active: 1.23; to GCUGUCGACUUUAAAAGGUTT against Pcdhga7, inactive: 0.132. GGAUACGAUUGAACGGCUGTT against Rac3: the z-score is inactive: 0.0993.

As for GUUGGUUGUAGGUACUUAUTT against Olfr487, the z-score is inactive: 0.198. To CCUGUCAAAGUUGUAAAAGTT against Zar1 belongs inactive: -0.837; to “GGUCAAGUGUAAGAUGUUUTT against 1700001E16Rik”, inactive: -0.492; to GCUGUGUCACUACUUCGAUTT against Rpp40, inactive: -1.3. To GGUGUCUGAUUCUAACAUATT against Catsper4 belongs inactive: 0.662; to CGGUUCUGGGAAUUCUUUGTT against Olfr624, inactive: -0.000744. To GGCCGAUAUGGUGUUUAGATT against Tomm40l belongs inactive: -0.11; to GCAUCACUGCCACAGUGCATT against Olfr159, inactive: 0.437. As to GGCGAGAAAUUCUUCACAUTT against Plxna3, the z-score is inactive: -0.643.

Regarding GCAGUGUUGAGACCAACAUTT against C1qtnf3, the z-score was inactive: -0.0384. Turning to GGAAGAGAUAAGAAGAGAGTT against Faim, the z-score was inactive: -1.67.

For “GGAUAGAGUUAAUGAAAAGTT against 1200014M14Rik”, the z-score is inactive: 0.822. Regarding GGCCAUCUUUCUAUACAAATT against Bcl10, the z-score was inactive: 0.0528. The result for GGAAGAGCACAUCAUUGCATT against LOC212871 reads inactive: 0.17; that for GGUGCCAGAAGAUUUACGATT against Fmr1, inactive: 1.38. The result for CCUACGUGCUGUGAGAUUCTT against Ccl25 reads inactive: 0.694. In the case of “GGCCAAAGGCAUCAGGCAUTT against 1700020F09Rik”, the z-score was inactive: 0.202.

Turning to GGGCCAGUCAUUGAAGAUUTT against U2af2, the z-score is inactive: -1.94.

As to GGUGUACAACAUCAGCGACTT against Fads1, the z-score was inactive: 1.06. To GCCCGUGUCAUCAUUUUCUTT against Doxl2 belongs inactive: -0.00358. Turning to CGAGGUGACCUACAAGAUUTT against AI481750, the z-score was inactive: 0.982.

For GGUGGAGUUUCUCAAAAGCTT against Kcnc3, the z-score is inactive: -1.79. Take GGCAUCCAAGCAAAAUGGCTT against Eng: the z-score was inactive: 2.09. The result for GGUUAUUCAAAAAUGCAACTT against D12Wsu95e reads inactive: 0.66; that for CGGGUCCAGCCAAUUGCAUTT against Plxnc1, inactive: 0.134; that for GCUUGGGUCAUAGGGAUGATT against Olfr1288, inactive: -0.594. The result for “GACAUUUCGACCUUCCAGUTT against 2310002F18Rik” reads inactive: 0.553; that for CACUCUUGAUACAAAUGAGTT against Ifna6T, inactive: 0.264. To “GGAAUUGUCAGGUCUUGAATT against 0610009B10Rik” belongs inactive: -2.29.

Consider GCAGGACUUGACAAUAGUCTT against Itgb1bp2, for which the z-score was inactive: 0.487. The result for GGCAACUUUAUACACAAACTT against V1rc5 reads inactive: 0.506; that for GGAAGAAUGUGAUGACUCATT against Zfp11, inactive: 0.172; that for GCUGGCUGAAACAUCUACCTT against Trappc1, inactive: 0.0507. To GGGAGAAGAAUUUGAACAGTT against Ak1 belongs inactive: -1.68.

On to “GGUAGAUUUGGAAUAAGCCTT against 5330440M15Rik”, for which the z-score is inactive: -0.743. Consider GGUUAAAGAAGAUAAUCAGTT against Ccdc2, for which the z-score was inactive: 0.756.

With GGCUGGAGUAGAAGAACUGTT against Hsbp1, the z-score was inactive: -1.87. The result for “CCUAUGAAUCUUACAGGACTT against Zfp422-rs1” reads inactive: -0.207. To “CCCAAUGGCACUCUAUAUCTT against 2900042E01Rik” belongs inactive: -0.436; to “GCAUCAUGAUACGAAGCAGTT against 2310047I15Rik”, inactive: -0.79. The result for GGUGGAACACAUAUUUUAATT against Tbc1d13 reads inactive: 1.98; that for GGUACAUAUCCAUUCACAGTT against Cnr1, inactive: 1.56. Regarding CGUUUGGGAUCGAAAGUCATT against Tbl1x, the z-score is inactive: -1.67. To CGGAUCAUCAUGUACACUGTT against Tpsg1 belongs inactive: 1.86; to GGACUGACUGGCUUCAUUGTT against Arl6ip2, inactive: -2.02. Take “GGCCAACUGGAGAUAGAUATT against 1500001M20Rik”: the z-score was inactive: 0.202.
